Test results as given in PubChem BioAssay AID1439 (NMMLSC, 2008).
In all, about 220,000 compounds went through this assay and about 770 (0.35%) were called active. Inconclusive means that the source gave no clear call. Such entries were picked first, then a sample of the others. No stated cut-off is given here; in the data, active means binding response below about 49% or above about 150%; inconclusive means no clear call, values can overlap the other calls; inactive means in between.

Sequences of proteins named here, by UniProt entry; tags and fusion partners are left off.
UniProt P09471, whole entry, looked up: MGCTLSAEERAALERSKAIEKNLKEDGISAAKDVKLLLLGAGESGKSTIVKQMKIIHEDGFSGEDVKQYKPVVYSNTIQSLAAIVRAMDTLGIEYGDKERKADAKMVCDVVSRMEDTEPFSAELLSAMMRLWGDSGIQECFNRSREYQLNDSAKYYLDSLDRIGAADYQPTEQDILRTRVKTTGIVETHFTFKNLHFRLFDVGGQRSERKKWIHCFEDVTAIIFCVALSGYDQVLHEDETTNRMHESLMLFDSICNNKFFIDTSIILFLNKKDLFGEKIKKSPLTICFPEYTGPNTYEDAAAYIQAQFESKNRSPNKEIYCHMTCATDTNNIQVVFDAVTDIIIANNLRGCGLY

Each molecule was assayed against Guanine nucleotide-binding protein G(o) subunit alpha (Homo sapiens) (UniProt P09471) (assay: RGS7-Galphao binding modulators, primary screen, biochemical, multiplexed bead flow cytometry (AID 1439;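 further: fluorescent Galphao held in activated GDP-AlF4 state binding bead-coupled RGS7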)). Conditions: at 10 µM, actives lie on both sides.

Structure (SMILES) | binding response (% of control)
CC(C)(C)C(=O)Nc1ccc(-c2cc3cc(Cl)ccc3o2)cc1 | inconclusive: 101%
O=C(Cc1ccccc1)NC1(O)C(=O)c2ccccc2C1=O | inconclusive: 101%
CCc1cc2cc(C)ccc2nc1SCC(=O)N1CCN(C(=O)c2ccco2)CC1 | inactive: 94.9%
Cn1c(NNC(=O)C2CCCCC2)cc(=O)n(C)c1=O | inactive: 104%
CCOC(=O)c1c(OCCO)nn(-c2ccccc2)c1N | inconclusive: 108%
COCCNC(=O)C1CCCN(S(=O)(=O)c2c(C)noc2/C=C/c2cccs2)C1 (centres undefined) | inconclusive: 131%
Cc1cccn2cc(CCNS(=O)(=O)c3cccs3)nc12 | inconclusive: 92.9%
Cc1ccc(NC(=O)C(C)NC(=O)OCc2ccccc2)cc1C (centres undefined) | inconclusive: 138%
c1cnn(-c2cncc(-n3cccn3)n2)c1 | inactive: 98.3%
CN(C)/C=N/c1sc2c(c1C#N)CCCC2 | inconclusive: 117%
CCN(CC)c1c([N+](=O)[O-])c(=O)n(CC)c2ccccc12 | inconclusive: 156%
Cc1ccc(NC(=O)c2cc3c(=O)oc4ccc(C)cc4c3s2)nc1 | inconclusive: 70.6%
Cn1nc(-c2ccc(S(N)(=O)=O)s2)cc1C(F)(F)F | inconclusive: 193%
Cc1nc2ccccc2nc(C)c1=NOCc1ccccc1Cl | inactive: 97.8%
CCOCCCNC(=O)C(NC(=O)Cc1cccs1)c1ccc(OC)cc1 (centres undefined) | inconclusive: 113%
O=C(NCc1cccs1)C1CCCN1C(=O)Nc1ccc(Cl)cc1 (centres undefined) | inconclusive: 107%
CCOC(=O)CNc1cccc(C(F)(F)F)c1 | inactive: 97.2%
CC(=O)N1CCCN(Cc2cn(-c3cc(C)ccc3C)nc2-c2ccccc2)CC1 | inactive: 91.7%
O=C(N/N=C/c1ccc([N+](=O)[O-])o1)c1ccncc1 | inconclusive: 72.9%
COc1cccc(SCC(=O)N2CCN(c3ccccc3)CC2)c1 | inconclusive: 90.8%

Structure (SMILES) | binding response (% of control)
C/C=C\C=C\C(=O)N1CC2(CC(c3cccc(NC(=O)CC(c4ccccc4)c4ccccc4)c3)=NO2)C[C@H]1C(N)=O (some centres undefined) | inconclusive: 91.8%
Cn1c(=O)c2[nH]c(CNc3ccc(C(=O)O)cc3)nc2n(C)c1=O | inconclusive: -36.4%
CCN(C(=O)COC(=O)/C=C/c1ccccc1[N+](=O)[O-])C1CCS(=O)(=O)C1 (centres undefined) | inactive: 96.8%
CSc1cccc(NC(=S)N(CCN(C)C)C(C)c2ccncc2)c1 (centres undefined) | inconclusive: 107%
COc1ccc(Nc2nc(NCCCN3CCOCC3)nc(N)c2[N+](=O)[O-])cc1 | inconclusive: 97.5%
CCCN(Cc1ccccc1)C(=S)NC(=O)c1ccccc1[N+](=O)[O-] | inactive: 97.5%
CC(=O)c1cccc(Nc2cc(C)nc3c(C)cccc23)c1 | inconclusive: 152%
C=C1CCN(C(C)C(=O)OC)S(=O)(=O)c2ccccc21 (centres undefined) | inconclusive: 87.3%
CCOC(=O)c1sc(=S)n(CC)c1NC(=O)c1ccccc1 | inconclusive: 82.6%
Cc1cc(/C=N/NC(N)=S)c(O)c(/C=N/NC(N)=S)c1 | inconclusive: 109%
CS(=O)(=O)N1CCN(C(=O)COc2ccc3ccccc3c2)CC1 | inconclusive: 103%
O=C(NNc1c(Cl)cccc1Cl)C1CCC1 | inconclusive: 108%
CC(=O)c1sccc1NC(=O)CC(C)(C)CC(=O)O | inconclusive: 79.8%
CC(=O)c1c(C(C)=O)c(C)n(NC(=O)c2ccc(Cl)cc2)c1C | active: 163% [activator]
C/C(=N\NC(=O)CCc1ccc(S(=O)(=O)N2CCOCC2)cc1)c1ccccc1Cl | inconclusive: 106%
COc1ccccc1N(CC(=O)NC1CCCCC1)S(=O)(=O)c1cccs1 | inconclusive: 121%
O=C(Cc1noc2ccccc12)Nc1ccc2ccccc2c1 | inactive: 89.5%
CCNC(=O)CCc1nc(-c2ccc(C)cc2)no1 | inconclusive: 97.6%
NC(=O)c1ccc[n+](CC(=O)c2ccc(F)cc2)c1 | inconclusive: 97.8%
COCCCN(C(=S)Nc1c(C)cc(C)cc1C)C(C)c1ccccn1 (centres undefined) | inactive: 107%

Arranged by number of heavy atoms (rising): part of the list above
Structure (SMILES) | binding response (% of control)
O=C(NNc1c(Cl)cccc1Cl)C1CCC1 | inconclusive: 108%
NC(=O)c1ccc[n+](CC(=O)c2ccc(F)cc2)c1 | inconclusive: 97.8%
Cc1cc(/C=N/NC(N)=S)c(O)c(/C=N/NC(N)=S)c1 | inconclusive: 109%
CCOC(=O)c1sc(=S)n(CC)c1NC(=O)c1ccccc1 | inconclusive: 82.6%
O=C(Cc1noc2ccccc12)Nc1ccc2ccccc2c1 | inactive: 89.5%
Cn1c(=O)c2[nH]c(CNc3ccc(C(=O)O)cc3)nc2n(C)c1=O | inconclusive: -36.4%
CCCN(Cc1ccccc1)C(=S)NC(=O)c1ccccc1[N+](=O)[O-] | inactive: 97.5%
COCCCN(C(=S)Nc1c(C)cc(C)cc1C)C(C)c1ccccn1 (centres undefined) | inactive: 107%
COc1ccccc1N(CC(=O)NC1CCCCC1)S(=O)(=O)c1cccs1 | inconclusive: 121%
COc1ccc(Nc2nc(NCCCN3CCOCC3)nc(N)c2[N+](=O)[O-])cc1 | inconclusive: 97.5%
C/C(=N\NC(=O)CCc1ccc(S(=O)(=O)N2CCOCC2)cc1)c1ccccc1Cl | inconclusive: 106%

(list continues)

Structure (SMILES) | binding response (% of control)
CC(=O)C1C(=O)c2c(cccc2[N+](=O)[O-])C1=Nc1ccc(S(N)(=O)=O)cc1 (centres undefined) | inactive: 108%
COc1ccc(N2C(=O)C(CC(=O)O)S/C2=C\C(C)=O)cc1 (centres undefined) | inactive: 96.3%
COc1cc([N+](=O)[O-])ccc1NC(=O)CN1CCN(C(=O)c2ccco2)CC1 | inactive: 102%
Cc1ccc(/C=C2\CC(C)CC3=C2NC(=S)NC3c2ccc(C)cc2)cc1 (centres undefined) | inconclusive: 88.8%
CCc1c(C)sc2nc3c(C(=O)N4CCOCC4)cc(C(=O)c4ccccc4O)cn3c(=O)c12 | inconclusive: 94.7%
Cc1ccnn1C(C)C(=O)O (centres undefined) | inconclusive: 111%
COc1ccc(NC(=O)Cc2ccc(C)c(C)c2)cc1Cl | inactive: 102%
COc1ccc(NC(=O)CC2C(=O)NCCN2C(=O)c2ccccc2)cc1 (centres undefined) | inconclusive: 136%
COc1ccc(CNC(=O)CSc2cccc3cccnc23)cc1 | inconclusive: 88.5%
COc1ccc(SC[C@H](CC(C)C)N2CCN(C)CCC2=O)cc1 | inconclusive: 98.6%
CC(O)c1cccc(NC(=O)CCCc2ccccc2)c1 (centres undefined) | inactive: 96.2%
FC(F)(F)Oc1ccccc1-c1nnc(-c2cccc(C(F)(F)F)c2)o1 | inconclusive: 5.95%
COc1ccc(S(=O)(=O)N2CCCC2c2cccs2)cc1 (centres undefined) | inconclusive: 102%
Cc1c(Br)c([N+](=O)[O-])nn1C(C)C(=O)N1CCCc2ccccc21 (centres undefined) | inactive: 103%
CC(C)c1ncc(C(O)c2ccccc2)n1C (centres undefined) | inconclusive: 110%
CCCCOC(=O)c1ccc(NC(=O)C(=O)NCc2ccccn2)cc1 | inconclusive: 94.6%
Cc1nc(-c2c(C(=O)NNC(=O)Nc3c(C)cccc3C)noc2C)cs1 | inconclusive: 77.2%
Cc1ccc2nc(SCC(=O)c3c(N)n(C)c(=O)n(C)c3=O)[nH]c2c1 | inconclusive: 83.4%
COc1ccc(N2C(=O)[C@@H]3C(c4cccnc4)=NO[C@@H]3C2=O)cc1 | inconclusive: 120%
